{"source": "patent US8383581B2", "about": "“Short-chain peptides as parathyroid hormone (PTH) receptor agonist” (Cadila Healthcare Limited, priority 2009, dated 2013)", "test_system": "ovariectomised (OVX) rats", "assay": "In vivo anti-osteoporosis activity testing in OVX rat model (serum calcium, phosphate, bone parameters)", "set-up": "species or system Female Wistar Rats", "details": "20 μg/kg, sc", "description": "c) In Vivo Anti-Osteoporosis Activity Testing in OVX Rat Model: The ovariectomised (OVX) rats were used to study anti-osteoporosis activity of test compounds (short-chain peptides) in vivo. The OVX rats develop osteopenia due to ovarian hormone deficiency. Osteopenia can be detected as early as 14 days post OVX, increase for the next 100 days and then stabilised (Wronski T. J., et al., Calcif. Tissue Int., 43(3), 1988, 179-183). Detailed Study Protocol to Evaluate the Effects of Anabolic Therapy on Bone Markers and Histomorphometry in OVX Animals: 10 to 11 weeks old Female Wistar Rats (150-200 g) were used. The animals were kept in individually ventilated cages in a room with controlled temperature (23°±3° C.), lighting (12:12 h light-dark cycle) and relative humidity (55±10%). Animals had free access to standard rat chow and water. Protocol for use of animals for conducting this study has been reviewed and approved by Institutional Animal Ethics Committee (IAEC). The animals were marked with picric acid for identification and acclimatized to experimental room conditions for 2 days prior to initiation of the study. […] Changes in biochemical parameters and bone turnover parameters (Increase in serum Calcium and decrease in Phosphate levels, Acid Phosphatase and TRAP) were evaluated in the urine and serum. […]", "note": "Part of at least one peptide drawing is inferred or uncertain, most often the ends.", "data": [{"smiles": "CC[C@H](C)[C@H](NC(=O)[C@H](CCC(=O)O)NC(=O)[C@H](CO)NC(=O)[C@@H](NC(=O)[C@@H](N)CO)C(C)C)C(=O)N[C@@H](CCC(N)=O)C(=O)N[C@@H](CC(C)C)C(=O)N[C@@H](CCSC)C(=O)N[C@@H](Cc1c[nH]cn1)C(=O)N[C@@H](CC(N)=O)C(=O)N[C@@H](CC(C)C)C(=O)NCC(=O)N[C@@H](CCCCN)C(=O)N[C@@H](Cc1c[nH]cn1)C(=O)N[C@@H](CC(C)C)C(=O)N[C@@H](CC(N)=O)C(=O)N[C@@H](CO)C(=O)N[C@@H](CCSC)C(=O)N[C@@H](CCC(=O)O)C(=O)N[C@@H](CCCNC(=N)N)C(=O)N[C@H](C(=O)N[C@@H](CCC(=O)O)C(=O)N[C@@H](Cc1c[nH]c2ccccc12)C(=O)N[C@@H](CC(C)C)C(=O)N[C@@H](CCCNC(=N)N)C(=O)N[C@@H](CCCCN)C(=O)N[C@@H](CCCCN)C(=O)N[C@@H](CC(C)C)C(=O)N[C@@H](CCC(N)=O)C(=O)N[C@@H](CC(=O)O)C(=O)N[C@H](C(=O)N[C@@H](Cc1c[nH]cn1)C(=O)N[C@@H](CC(N)=O)C(=O)N[C@@H](Cc1ccccc1)C(=O)O)C(C)C)C(C)C", "note": "[PTH(1-34), reference compound]", "values": [{"measurement": "% decrease in serum PO4 Levels (mg/dl) vs control", "result": 100, "unit": "%"}, {"measurement": "% increase in serum Ca^2+ Levels (mg/dl) vs control", "result": 100, "unit": "%"}]}]}
